# Test results as given in PMC12548414.
# In all, about 1,600 compounds went through this assay and about 20 (1%) showed an effect of 50% or more. The list shows a part of the results.
# System: T1, E. coli pLC1021 (luc-trpAt trans-translation reporter)
# T1 construct: pLC1021 luc-trpAt reporter strain
# Parameters: species or system Escherichia coli pLC1021; luc-trpAt non-stop luciferase reporter; luminescence rises when trans-translation is inhibited; normalized to KKL-35 and DMSO
# Conditions: reporter signal, KKL-35 = 100%; rise means trans-translation inhibition; 2 h, 20 µM
# Outline: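 Cells carrying the non-stop luc-trpAt reporter were exposed to 20 µM compound for 2 h at room temperature, then Bright-Glo was added and luminescence read at 560 nm after 10 min. Signals were normalised per plate to DMSO and 20 µM KKL-35 wells. Hits: activity one SD above the median; ≥2 biological repeats averaged.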
row,SMILES,% activation
1,O=C(CSc1n[nH]c(-c2ccc(Cl)cc2)n1)Nc1ccc(F)c(Cl)c1 [KKL-1524],0%
2,O=C1c2cccc3c(N4CCOCC4)c([N+](=O)[O-])cc(c23)C(=O)N1c1cccc2ccccc12 [KKL-1087],0%
3,Cc1cc(C)cc(COc2ccc3c(C)c(CCC(=O)O)c(=O)oc3c2C)c1 [KKL-1546],0%
4,CCC(C)NCCOc1ccc(C(C)(C)c2ccccc2)cc1 (centres unmarked) [KKL-1489],1%
5,CCCOC(=O)COc1ccc2c(=O)c(-c3ccccc3OC)coc2c1 [KKL-1880],4%
6,Cc1ccc(S(=O)(=O)Nc2ccc(NC(=O)Nc3cccc(C(F)(F)F)c3)cc2)cc1 [KKL-1329],0%
7,O=C(/C=C/c1cc([N+](=O)[O-])ccc1O)c1ccc(Cl)cc1 [KKL-0296],0%
8,O=C(/C=C/c1cn(CC(O)CN2CCCCC2)c2ccccc12)c1ccccc1 (centres unmarked) [KKL-1210],0%
9,COC(=O)[C@@H]1Cc2c([nH]c3ccccc23)[C@H]2C[C@@H](N3CCOCC3)C[C@@H](c3ccc(Cl)c(F)c3)N21 [KKL-0305],0%
10,CCC(CC)C(=O)N1CCCC(C(=O)Nc2cccc(-c3ccc(F)cc3)c2)C1 (centres unmarked) [KKL-0490],3%
11,Cc1nn(-c2ccc([N+](=O)[O-])cc2)c(C)c1N1C(=O)c2cccc3cc(Br)cc(c23)C1=O [KKL-0425],0%
12,C#CCOc1cccc(CN2CCc3[nH]c4ccc(OCC)cc4c3C2)c1 [KKL-0460],26%
13,CCc1ccc(C=c2sc(=CC(=O)C(C)(C)C)[nH]c2=O)cc1 [KKL-0793],0%
14,Cc1ccc2[nH]c(/C(C#N)=C\c3ccc([N+](=O)[O-])o3)nc2c1 [KKL-1100],0%
15,O=C(NC1CCCCC1)N1CCN(Cc2ccc3c(c2)OCO3)CC1 [KKL-1053],3%
16,O=C(CC12CC3CC(CC(C3)C1)C2)Nc1ccc(F)c(Cl)c1 [KKL-0744],0%
17,COc1ccccc1CCCNC(=O)c1cc(-c2c(C)nn(C)c2C)[nH]n1 [KKL-0468],0%
18,Cc1ccc(-c2csc3nc(SCC(N)=O)n(-c4ccccc4)c(=O)c23)cc1C [KKL-1411],0%
19,CCOC(=O)/C=C/C(=O)Nc1nc(-c2ccccc2)cs1 [KKL-1378],0%
20,COc1ccc(CN2CCN(C(=O)CCc3csc(C)n3)CC2)cc1 [KKL-1778],0%
21,N#CCc1ccc(NC(=O)/C=C/c2ccc([N+](=O)[O-])o2)cc1 [KKL-1204],0%

# Structures listed so far with an aryl methoxy group:
row,SMILES,% activation
5,CCCOC(=O)COc1ccc2c(=O)c(-c3ccccc3OC)coc2c1 [KKL-1880],4%
17,COc1ccccc1CCCNC(=O)c1cc(-c2c(C)nn(C)c2C)[nH]n1 [KKL-0468],0%
20,COc1ccc(CN2CCN(C(=O)CCc3csc(C)n3)CC2)cc1 [KKL-1778],0%

# Continued:

row,SMILES,% activation
1,Cc1nc2cc(OCc3cc(C(=O)N4CCCC(c5ccccc5)C4)no3)ccc2s1 (centres unmarked) [KKL-1111],2%
2,COC(=O)COc1ccc(C2CCCCC2)cc1 [KKL-1303],0%
3,CC(=O)N1CCN(c2ccc(NC(=S)NC(=O)c3cc4ccccc4o3)cc2)CC1 [KKL-1376],0%
4,COc1ccc(OC(C)C(=O)Nc2ccc(Cl)cc2C)cc1 (centres unmarked) [KKL-1555],4%
5,COC(=O)COc1ccc2c(=O)c(-c3ccccc3OC)coc2c1 [KKL-1134],3%
6,COc1ccc(-c2cc3ncccc3c(NCCNC(=O)c3scnc3C)n2)cc1 [KKL-1255],0%
7,CCOC(=O)C1(Cc2ccc(Cl)cc2)CCN(C(=O)Nc2ccc(SC)cc2)CC1 [KKL-0519],2%
8,Cc1nn2c(N3CCN(C)CC3)cc(C(C)(C)C)nc2c1-c1ccccc1 [KKL-0881],0%
9,Cc1cnc(N2CCN[C@@H](Cc3ccccc3)C2)nc1Oc1ccc(-n2ccnc2)cc1 [KKL-1724],6%
10,Fc1ccc(Nc2nc(-c3ccccn3)cs2)cc1 [KKL-0715],18%
11,COc1ccc(C2(C(=O)Nc3ccc(Br)cc3)CCCC2)cc1 [KKL-1576],0%
12,Cc1ccccc1CN1CC[C@@H]2[C@H](C1)[C@@H](c1ccc(F)cc1)CN2C(=O)C(C)C [KKL-1218],2%
13,COc1ccc(-c2cnnc(NCCc3cccnc3)n2)cc1 [KKL-0647],2%
14,CN(CCn1ccnc1)Cc1cn(Cc2ccccc2)nc1-c1cc2ccccc2o1 [KKL-0649],0%
15,CC(NC(=O)Nc1cccc(C(F)(F)F)c1)C1CC2CCC1C2 (centres unmarked) [KKL-1545],0%
16,Cc1ccc(NC(=O)C2OCOc3ccccc32)cc1N1CCCCC1 (centres unmarked) [KKL-0697],0%
17,Cc1nn(-c2nc(-c3ccc(Cl)cc3)cs2)c(O)c1N=Nc1ccc(O)cc1 [KKL-1107],4%
18,O=C(c1cc(COc2ccc(F)c(F)c2)on1)N1CCCCO1 [KKL-0617],0%
19,CCOc1ccc(OCc2ccc(C(=O)NNC(=O)c3ccc([N+](=O)[O-])o3)cc2)cc1 [KKL-1790],0%
20,CCOC(=O)c1ccc(NC(=O)COc2ccccc2CNCCc2ccccc2)cc1 [KKL-0959],0%
21,CCc1c(C)sc(N=C(S)NC2CCN(Cc3ccccc3)CC2)c1C(=O)OC [KKL-1327],0%

row,SMILES,% activation
1,COc1cccc(CNC(=O)CCC2CCCN(c3ccnc(SC)n3)C2)c1 (centres unmarked) [KKL-0650],9%
2,COC(=O)CSc1nc2c(c(-c3ccc(C)o3)c1C#N)CCCC2 [KKL-0895],0%
3,CCOC(=O)c1ccc2nc(C)cc(Nc3ccc(N4CCCCC4)cc3)c2c1 [KKL-0730],0%
4,N#Cc1nc(-c2ccccc2)oc1S(=O)(=O)c1ccc(Cl)cc1 [KKL-1705],0%
5,Clc1ccc(CCNc2cc(-c3ccccc3)nc3ncnn23)cc1 [KKL-1751],0%
6,COc1cccc(-n2nnnc2S(C)(=O)=O)c1 [KKL-0610],0%
7,Cc1ccc(CN(CCCn2ccnc2)Cc2cccn2-c2cccc(F)c2)o1 [KKL-0439],9%
8,CC(=O)Oc1cccc2ccc(/C=C/c3ccc(F)cc3)nc12 [KKL-1391],9%
9,O=[N+]([O-])c1cccc(NC(S)=Nc2ccc(Cl)c(C(F)(F)F)c2)c1 [KKL-1319],0%
10,COc1ccccc1N1C(=O)c2cccc3cc([N+](=O)[O-])cc(c23)C1=O [KKL-1508],0%
11,O=[N+]([O-])c1ccc(C=Nn2c(CO)nc3ccccc32)s1 [KKL-0991],0%
12,O=C(Nc1ccc(-c2nc3ccccc3c(=O)o2)cc1)c1ccccc1I [KKL-1501],2%
13,COC(=O)COc1ccc2c(-c3cccc([N+](=O)[O-])c3)cc(=O)oc2c1 [KKL-0762],0%
14,COC(=O)[C@@H]1Cc2c([nH]c3ccccc23)[C@H]2C[C@H](NCc3cccnc3)C[C@@H](c3ccc(C(F)(F)F)cc3)N21 [KKL-1613],0%
15,COc1ccc(C(=O)NC(=S)Nc2ccc([N+](=O)[O-])cc2O)cc1Br [KKL-1437],5%
16,O=C(NCc1ccoc1)N1CCN(Cc2ccc3c(c2)OCO3)CC1 [KKL-1720],3%
17,CC(C)(C)c1ncc(C(=O)N2CCc3[nH]c4c(Cl)cccc4c3C2)cn1 [KKL-0673],1%
18,COc1ccccc1-c1coc2cc(OCC(=O)OC3CCCCC3)ccc2c1=O [KKL-1400],0%
19,COc1ccc2c(c1)NC1(COC3(CCN(Cc4cccc(Cl)c4)CC3)C1)c1cccn1-2 (centres unmarked) [KKL-0328],0%
20,c1ccc(Cc2nnc(Sc3ccnc(N4CCN(c5ccncc5)CC4)n3)n2CCN2CCOCC2)cc1 [KKL-1730],0%
21,CCOC(=O)C(C)Oc1ccc2c(-c3ccc(OC)cc3)cc(=O)oc2c1 (centres unmarked) [KKL-0763],0%

row,SMILES,% activation
1,Cc1cccc(-c2cc3nc(C)c(C)c(NCCCn4ccnc4)n3n2)c1 [KKL-1630],0%
2,COC(=O)C(C)Sc1nnc(-c2ccc(Br)cc2)o1 (centres unmarked) [KKL-0759],0%
3,O=C(CSc1ccc(C(F)(F)F)cc1[N+](=O)[O-])OC1CCCCC1 [KKL-1422],1%
4,CC(C)(C)NCCCCOc1ccc(Cl)cc1C(C)(C)C [KKL-1275],0%
5,CCn1ccnc1CN(C)Cc1cn(-c2ccc(C)cc2)nc1-c1cccc(C)c1 [KKL-0665],0%
6,Cc1cccc(NC(=S)NC(=O)CC23CC4CC(CC(C4)C2)C3)c1 [KKL-1311],0%
7,COc1ccc(N=c2cc(-c3ccc(O)cc3)oc3ccccc23)cc1 [KKL-0846],0%
8,CCOC(=O)c1sc2nc(CSc3ccccc3)nc(N3CCCN(C)CC3)c2c1C [KKL-0828],0%
9,Cc1nn(-c2ccccc2)c(S)c1C=Nc1ccccc1O [KKL-0767],0%
10,Oc1c(CN2CCc3ccccc3C2)cc(Cl)c2cccnc12 [KKL-0391],42%
11,Cc1ccc(NC(=O)C(C)NS(=O)(=O)c2ccc(Cl)cc2)cc1Cl (centres unmarked) [KKL-1552],0%
12,COc1ccc(-c2cc([C@H]3CN4CC[C@H]3C[C@@H]4COC(=O)Nc3cccc(C(F)(F)F)c3)n(C)n2)cc1OC [KKL-0324],0%
13,Cc1cc(C(F)(F)F)c2c(NCc3cccc4cccnc34)[nH]nc2n1 [KKL-1237],6%
14,CCOC(=O)c1cnc(-n2nc(C)cc2C)nc1N(CC)CC [KKL-0372],0%
15,Cc1ccc(Sc2ccc(C=O)o2)cc1 [KKL-1483],0%
16,COc1ccc(OC(C)C(=O)Nc2ccc(I)cc2)cc1 (centres unmarked) [KKL-1557],0%
17,O=C(OCC#CCSc1nnc(-c2ccc(Br)cc2)o1)c1cccs1 [KKL-0368],0%
18,Cc1ccc(C2CC(C(F)(F)F)n3ncc(C(=O)NCc4ccco4)c3N2)cc1 (centres unmarked) [KKL-1133],0%
19,COC(=O)c1ccc(OCC(=O)Nc2ccccc2F)cc1 [KKL-1334],0%
20,O=[N+]([O-])c1cccc(NC(S)=Nc2ccc(Cl)c(Cl)c2)c1 [KKL-1588],0%
